This note sets out measurements from article PMC11391609.

Results are given in words; binding and its absence hold for the method and conditions named. In cells and extracts the contact can be indirect. Some results given as binding are weak or reduced against the parent protein; the word gives no strength.

This test concerns the target T1, Sirtuin 1 (SIRT1) (human (endogenous in RL95-2)), Q96EB6.
T1 chain: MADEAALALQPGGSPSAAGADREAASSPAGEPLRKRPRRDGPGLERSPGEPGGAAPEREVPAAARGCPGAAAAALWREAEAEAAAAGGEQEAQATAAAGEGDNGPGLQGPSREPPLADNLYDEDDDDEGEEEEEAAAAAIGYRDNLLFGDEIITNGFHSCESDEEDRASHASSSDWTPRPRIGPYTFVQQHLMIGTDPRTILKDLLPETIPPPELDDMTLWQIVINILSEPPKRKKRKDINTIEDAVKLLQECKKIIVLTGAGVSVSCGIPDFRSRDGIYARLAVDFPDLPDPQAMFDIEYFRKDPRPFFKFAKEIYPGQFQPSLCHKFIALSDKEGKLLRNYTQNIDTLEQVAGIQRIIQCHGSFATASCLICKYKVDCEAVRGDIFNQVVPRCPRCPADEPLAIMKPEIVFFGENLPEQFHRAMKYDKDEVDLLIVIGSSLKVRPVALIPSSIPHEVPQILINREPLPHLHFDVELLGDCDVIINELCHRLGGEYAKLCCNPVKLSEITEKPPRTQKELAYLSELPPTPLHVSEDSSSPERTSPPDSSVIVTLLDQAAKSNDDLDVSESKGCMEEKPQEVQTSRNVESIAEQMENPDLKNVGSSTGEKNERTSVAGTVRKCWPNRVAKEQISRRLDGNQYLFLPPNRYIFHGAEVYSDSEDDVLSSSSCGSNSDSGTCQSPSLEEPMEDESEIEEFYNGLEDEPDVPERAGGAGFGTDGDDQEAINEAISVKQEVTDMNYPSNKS
Nature of the test: co-IP; RL95-2 lysate (IP lysis buffer with protease and phosphatase inhibitors) incubated overnight at 4 °C with Protein G magnetic beads and anti-SIRT1 or anti-FOXO3 antibody; washed four times with NETN buffer (20 mM Tris pH 8.0, 100 mM NaCl, 1 mM EDTA, 0.5% NP-40); Western blot. The settings on record: remark: other sources report otherwise.

B1: FOXO3, O43524 1-673 (protein)
chain: MAEAPASPAPLSPLEVELDPEFEPQSRPRSCTWPLQRPELQASPAKPSGETAADSMIPEEEDDEDDEDGGGRAGSAMAIGGGGGSGTLGSGLLLEDSARVLAPGGQDPGSGPATAAGGLSGGTQALLQPQQPLPPPQPGAAGGSGQPRKCSSRRNAWGNLSYADLITRAIESSPDKRLTLSQIYEWMVRCVPYFKDKGDSNSSAGWKNSIRHNLSLHSRFMRVQNEGTGKSSWWIINPDGGKSGKAPRRRAVSMDNSNKYTKSRGRAAKKKAALQTAPESADDSPSQLSKWPGSPTSRSSDELDAWTDFRSRTNSNASTVSGRLSPIMASTELDEVQDDDAPLSPMLYSSSASLSPSVSKPCTVELPRLTDMAGTMNLNDGLTENLMDDLLDNITLPPSQPSPTGGLMQRSSSFPYTTKGSGLGSPTSSFNSTVFGPSSLNSLRQSPMQTIQENKPATFSSMSHYGNQTLQDLLTSDSLSHSDVMMTQSDPLMSQASTAVSAQNSRRNVMLRNDPMMSFAAQPNQGSLVNQNLLHHQHQTQGALGGSRALSNSVSNMGLSESSSLGSAKHQQQSPVSQSMQTLSDSLSGSSLYSTSANLPVMGHEKFPSDLDLDMFNGSLECDMESIIRSELMDADGLDFNFDSLISTQNVVGLNVGNFTGAKQASSQSWVPG
For the molecule B1, the binding entry is “binds”.
